# Test results taken from the supplement of paper PMC8728848.
# Some of the results follow.
# B1: AT1G80310(18) (Arabidopsis thaliana), Q0WP36 (protein)
# chain: METTTTPLLPGDRSRCGWLRRRLRLKNPLSSELSGAVGDLGTFIPIVLTLTLVSNLDLSTTLIFTGFYNIATGLLFDIPMPVQPMKSIAAVAVSESPHLTPSQIAAAGASTAATLLLLGATGAMSFLYNIIPLPVVRGVQLSQGLQFAFTAIKYVRFNYDTATLKPSSSPRIWLGLDGLILALAALLFIILSTGSGNDREAEDGDLAETSSNESQSRRRRLRLLSSIPSALIVFALGLVLCFIRDPSIFKDLKFGPSKFHILRISWDDWKIGFLRAAIPQIPLSVLNSVIAVCKLSNDLFDKELSATTVSISVGVMNLIGCWFGAMPVCHGAGGLAGQYRFGARSGLSVIFLGIGKLIVGLVFGNSFVRILSQFPIGILGVLLLFAGIELAMASKDMNSKEDSFIMLVCAAVSMTGSSAALGFGCGVVLYLLLKLRTLDCSSVTLFSRSSDESQVDSEAAPRDV
# What was measured:
# Assay in all cases: glycan array binding signal (z-score within array); higher = stronger binding
# Conditions in all cases: glycan notation: IUPAC condensed, linker removed
# [1] = target: Gal(b1-3)GlcNAc(b1-6)GalNAc
# Procedure, shortened: (§1)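 Arrays were curated from the Consortium for Functional Glycomics database, 3228 in total, and kept only where the protein sequence was available. Binding is expressed as a within-array Z-score. This score was averaged across arrays of the same protein sequence at different concentrations or buffers and across linkers, and negative values can be read as non-binding.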
# [2] = target: Gal(b1-3)GlcNAc(b1-6)[Gal(b1-3)]GalNAc
# Procedure, shortened: as §1
# [3] = target: Gal(b1-3)GlcNAc6S
# Procedure, shortened: as §1
# [4] = target: Gal(b1-3)[Fuc(a1-4)]GlcNAc
# Procedure, shortened: as §1
# [5] = target: Gal(b1-3)[Fuc(a1-4)]GlcNAc(b1-2)Man
# Procedure, shortened: as §1
# [6] = target: Gal(b1-3)[Fuc(a1-4)]GlcNAc(b1-2)Man(a1-3)[Gal(b1-3)[Fuc(a1-4)]GlcNAc(b1-2)Man(a1-6)]Man(b1-4)GlcNAc(b1-4)[Fuc(a1-6)]GlcNAc
# Procedure, shortened: as §1
# [7] = target: Gal(b1-3)[Fuc(a1-4)]GlcNAc(b1-3)Gal(b1-3)[Fuc(a1-4)]GlcNAc
# Procedure, shortened: as §1
# [8] = target: Gal(b1-3)[Fuc(a1-4)]GlcNAc(b1-3)Gal(b1-4)[Fuc(a1-3)]GlcNAc
# Procedure, shortened: as §1
# [9] = target: Gal(b1-3)[Fuc(a1-4)]GlcNAc(b1-6)GalNAc
# Procedure, shortened: as §1
# [10] = target: Gal(b1-3)[GlcNAc(b1-6)]GalNAc
# Procedure, shortened: as §1
# [11] = target: Gal(b1-3)[Neu5Ac(a2-6)]GalNAc
# Procedure, shortened: as §1
# [12] = target: Gal(b1-3)[Neu5Ac(a2-6)]GlcNAc(b1-4)Gal(b1-4)Glc
# Procedure, shortened: as §1
# [13] = target: Gal(b1-3)[Neu5Ac(b2-6)]GalNAc
# Procedure, shortened: as §1
# [14] = target: Gal(b1-4)Gal
# Procedure, shortened: as §1
# [15] = target: Gal(b1-4)GalNAc(a1-3)[Fuc(a1-2)]Gal(b1-4)GlcNAc
# Procedure, shortened: as §1
# [16] = target: Gal(b1-4)GalNAc(b1-3)[Fuc(a1-2)]Gal(b1-4)GlcNAc
# Procedure, shortened: as §1
# [17] = target: Gal(b1-4)Glc
# Procedure, shortened: as §1
# [18] = target: Gal(b1-4)Glc6S
# Procedure, shortened: as §1
# [19] = target: Gal(b1-4)GlcNAc
# Procedure, shortened: as §1
# [20] = target: Gal(b1-4)GlcNAc(a1-6)Gal(b1-4)GlcNAc
# Procedure, shortened: as §1
# [21] = target: Gal(b1-4)GlcNAc(b1-2)Man
# Procedure, shortened: as §1
# [22] = target: Gal(b1-4)GlcNAc(b1-2)Man(a1-3)Man(b1-4)GlcNAc(b1-4)GlcNAc
# Procedure, shortened: as §1
# [23] = target: Gal(b1-4)GlcNAc(b1-2)Man(a1-3)[Gal(b1-4)GlcNAc(b1-2)Man(a1-6)]Man(b1-4)GlcNAc(b1-4)GlcNAc
# Procedure, shortened: as §1
# [24] = target: Gal(b1-4)GlcNAc(b1-2)Man(a1-3)[Gal(b1-4)GlcNAc(b1-2)Man(a1-6)]Man(b1-4)GlcNAc(b1-4)[Fuc(a1-6)]GlcNAc
# Procedure, shortened: as §1
# [25] = target: Gal(b1-4)GlcNAc(b1-2)Man(a1-3)[Gal(b1-4)GlcNAc(b1-2)Man(a1-6)][Gal(b1-4)GlcNAc(b1-4)]Man(b1-4)GlcNAc(b1-4)[Fuc(a1-6)]GlcNAc
# Procedure, shortened: as §1
# [26] = target: Gal(b1-4)GlcNAc(b1-2)Man(a1-3)[Gal(b1-4)GlcNAc(b1-2)Man(a1-6)][GlcNAc(b1-4)]Man(b1-4)GlcNAc(b1-4)[Fuc(a1-6)]GlcNAc
# Procedure, shortened: as §1
# [27] = target: Gal(b1-4)GlcNAc(b1-2)Man(a1-3)[GlcNAc(b1-2)Man(a1-6)]Man(b1-4)GlcNAc(b1-4)GlcNAc
# Procedure, shortened: as §1
# [28] = target: Gal(b1-4)GlcNAc(b1-2)Man(a1-3)[GlcNAc(b1-4)][Gal(b1-4)GlcNAc(b1-2)Man(a1-6)]Man(b1-4)GlcNAc(b1-4)GlcNAc
# Procedure, shortened: as §1
# [29] = target: Gal(b1-4)GlcNAc(b1-2)Man(a1-3)[Man(a1-6)]Man(b1-4)GlcNAc(b1-4)GlcNAc
# Procedure, shortened: as §1
# [30] = target: Gal(b1-4)GlcNAc(b1-2)Man(a1-6)Man(b1-4)GlcNAc(b1-4)GlcNAc
# Procedure, shortened: as §1
# [31] = target: Gal(b1-4)GlcNAc(b1-2)Man(a1-6)[GlcNAc(b1-2)Man(a1-3)]Man(b1-4)GlcNAc(b1-4)GlcNAc
# Procedure, shortened: as §1
# [32] = target: Gal(b1-4)GlcNAc(b1-2)Man(a1-6)[Man(a1-3)]Man(b1-4)GlcNAc(b1-4)GlcNAc
# Procedure, shortened: as §1
# [33] = target: Gal(b1-4)GlcNAc(b1-2)[Gal(b1-4)GlcNAc(b1-4)]Man(a1-3)[Gal(b1-4)GlcNAc(b1-2)Man(a1-6)]Man(b1-4)GlcNAc(b1-4)GlcNAc
# Procedure, shortened: as §1
# [34] = target: Gal(b1-4)GlcNAc(b1-2)[Gal(b1-4)GlcNAc(b1-4)]Man(a1-3)[Gal(b1-4)GlcNAc(b1-2)[Gal(b1-4)GlcNAc(b1-6)]Man(a1-6)]Man(b1-4)GlcNAc(b1-4)GlcNAc
# Procedure, shortened: as §1
# [35] = target: Gal(b1-4)GlcNAc(b1-2)[Gal(b1-4)GlcNAc(b1-4)]Man(a1-3)[GlcNAc(b1-4)][Gal(b1-4)GlcNAc(b1-2)Man(a1-6)]Man(b1-4)GlcNAc(b1-4)GlcNAc
# Procedure, shortened: as §1
# [36] = target: Gal(b1-4)GlcNAc(b1-2)[Gal(b1-4)GlcNAc(b1-4)]Man(a1-3)[GlcNAc(b1-4)][Gal(b1-4)GlcNAc(b1-2)[Gal(b1-4)GlcNAc(b1-6)]Man(a1-6)]Man(b1-4)GlcNAc(b1-4)GlcNAc
# Procedure, shortened: as §1
# [37] = target: Gal(b1-4)GlcNAc(b1-2)[Gal(b1-4)GlcNAc(b1-6)]Man(a1-6)[Gal(b1-4)GlcNAc(b1-2)Man(a1-3)]Man(b1-4)GlcNAc(b1-4)GlcNAc
# Procedure, shortened: as §1
# [38] = target: Gal(b1-4)GlcNAc(b1-2)[Gal(b1-4)GlcNAc(b1-6)]Man(a1-6)[Gal(b1-4)GlcNAc(b1-2)Man(a1-3)]Man(b1-4)GlcNAc(b1-4)[Fuc(a1-6)]GlcNAc
# Procedure, shortened: as §1
# [39] = target: Gal(b1-4)GlcNAc(b1-2)[Gal(b1-4)GlcNAc(b1-6)]Man(a1-6)[GlcNAc(b1-4)][Gal(b1-4)GlcNAc(b1-2)Man(a1-3)]Man(b1-4)GlcNAc(b1-4)GlcNAc
# Procedure, shortened: as §1
# [40] = target: Gal(b1-4)GlcNAc(b1-2)[Gal(b1-4)GlcNAc(b1-6)]Man(a1-6)[GlcNAc(b1-4)][Gal(b1-4)GlcNAc(b1-2)[Gal(b1-4)GlcNAc(b1-4)]Man(a1-3)]Man(b1-4)GlcNAc(b1-4)[Fuc(a1-6)]GlcNAc
# Procedure, shortened: as §1
# [41] = target: Gal(b1-4)GlcNAc(b1-3)Gal(b1-3)GalNAc
# Procedure, shortened: as §1
# [42] = target: Gal(b1-4)GlcNAc(b1-3)Gal(b1-3)GlcNAc
# Procedure, shortened: as §1
# [43] = target: Gal(b1-4)GlcNAc(b1-3)Gal(b1-4)Glc
# Procedure, shortened: as §1
# [44] = target: Gal(b1-4)GlcNAc(b1-3)Gal(b1-4)GlcNAc
# Procedure, shortened: as §1
# [45] = target: Gal(b1-4)GlcNAc(b1-3)Gal(b1-4)GlcNAc(b1-2)Man(a1-3)[Gal(b1-4)GlcNAc(b1-3)Gal(b1-4)GlcNAc(b1-2)Man(a1-6)]Man(b1-4)GlcNAc(b1-4)GlcNAc
# Procedure, shortened: as §1
binder,measurement,setting,value
B1,glycan array binding signal (z-score),[1],0.559
same,glycan array binding signal (z-score),[2],0.78
same,glycan array binding signal (z-score),[3],-0.472
same,glycan array binding signal (z-score),[4],0.224
same,glycan array binding signal (z-score),[5],2.96
same,glycan array binding signal (z-score),[6],-0.645
same,glycan array binding signal (z-score),[7],1.19
same,glycan array binding signal (z-score),[8],-0.847
same,glycan array binding signal (z-score),[9],-0.486
same,glycan array binding signal (z-score),[10],0.239
same,glycan array binding signal (z-score),[11],1.3
same,glycan array binding signal (z-score),[12],-0.56
same,glycan array binding signal (z-score),[13],1.99
same,glycan array binding signal (z-score),[14],1.12
same,glycan array binding signal (z-score),[15],-0.77
same,glycan array binding signal (z-score),[16],-0.604
same,glycan array binding signal (z-score),[17],-0.001
same,glycan array binding signal (z-score),[18],-0.691
same,glycan array binding signal (z-score),[19],1.65
same,glycan array binding signal (z-score),[20],-0.491
same,glycan array binding signal (z-score),[21],-0.609
same,glycan array binding signal (z-score),[22],-0.223
same,glycan array binding signal (z-score),[23],-0.701
same,glycan array binding signal (z-score),[24],-0.489
same,glycan array binding signal (z-score),[25],-0.313
same,glycan array binding signal (z-score),[26],4.28
same,glycan array binding signal (z-score),[27],-0.038
same,glycan array binding signal (z-score),[28],-0.179
same,glycan array binding signal (z-score),[29],0.388
same,glycan array binding signal (z-score),[30],-0.165
same,glycan array binding signal (z-score),[31],-0.769
same,glycan array binding signal (z-score),[32],0.006
same,glycan array binding signal (z-score),[33],0.305
same,glycan array binding signal (z-score),[34],-0.459
same,glycan array binding signal (z-score),[35],-0.691
same,glycan array binding signal (z-score),[36],-0.562
same,glycan array binding signal (z-score),[37],0.482
same,glycan array binding signal (z-score),[38],0.23
same,glycan array binding signal (z-score),[39],0.735
same,glycan array binding signal (z-score),[40],2.65
same,glycan array binding signal (z-score),[41],-0.393
same,glycan array binding signal (z-score),[42],1.15
same,glycan array binding signal (z-score),[43],0.568
same,glycan array binding signal (z-score),[44],0.504
same,glycan array binding signal (z-score),[45],-0.442

# 4 entries drawn at random from those above:
binder,measurement,setting,value
B1,glycan array binding signal (z-score),[18],-0.691
same,glycan array binding signal (z-score),[17],-0.001
same,glycan array binding signal (z-score),[32],0.006
same,glycan array binding signal (z-score),[12],-0.56
